Measurements reported in paper PMC12255766 (2025).
These are yes or no findings as the source states them, for the method shown. In cells and extracts the contact can be indirect. Some entries that bind do so weakly or less than the wild type. Sequences can lack the tags named with a protein.

Amino acid sequences for entries named in this document (tags omitted). Residues count along the entry.
UniProt P43220, residues 24-463: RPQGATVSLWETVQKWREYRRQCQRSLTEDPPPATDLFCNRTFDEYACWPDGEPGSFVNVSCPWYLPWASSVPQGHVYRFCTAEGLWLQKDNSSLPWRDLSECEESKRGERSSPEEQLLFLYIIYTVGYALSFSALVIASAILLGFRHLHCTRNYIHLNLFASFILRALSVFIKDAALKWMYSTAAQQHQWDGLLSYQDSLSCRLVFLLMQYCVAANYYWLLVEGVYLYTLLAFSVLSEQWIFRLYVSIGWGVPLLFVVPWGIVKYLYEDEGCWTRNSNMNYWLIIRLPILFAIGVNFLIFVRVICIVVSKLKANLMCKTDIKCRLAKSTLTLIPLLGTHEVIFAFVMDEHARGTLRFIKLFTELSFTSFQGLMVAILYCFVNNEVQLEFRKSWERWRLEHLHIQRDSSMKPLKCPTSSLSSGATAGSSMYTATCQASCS

Assays:
[1] = target: T1, Nluc::LAG-2 (C. elegans DSL protein/Notch ligand LAG-2 fused to Nanoluciferase) (C. elegans) (UniProt P45442); assay: FRET or BRET; NanoBRET saturation in living HEK293 cells, both proteins co-expressed in the same cells (cis); gradient of Venus acceptor DNA (0-3970 ng/well) over constant Nluc donor (30 ng/well); coelenterazine H 5 µM, HBSS with 25 mM HEPES pH 7.4, 37 °C; BRET50 from a one site total binding hyperbola
T1 sequence: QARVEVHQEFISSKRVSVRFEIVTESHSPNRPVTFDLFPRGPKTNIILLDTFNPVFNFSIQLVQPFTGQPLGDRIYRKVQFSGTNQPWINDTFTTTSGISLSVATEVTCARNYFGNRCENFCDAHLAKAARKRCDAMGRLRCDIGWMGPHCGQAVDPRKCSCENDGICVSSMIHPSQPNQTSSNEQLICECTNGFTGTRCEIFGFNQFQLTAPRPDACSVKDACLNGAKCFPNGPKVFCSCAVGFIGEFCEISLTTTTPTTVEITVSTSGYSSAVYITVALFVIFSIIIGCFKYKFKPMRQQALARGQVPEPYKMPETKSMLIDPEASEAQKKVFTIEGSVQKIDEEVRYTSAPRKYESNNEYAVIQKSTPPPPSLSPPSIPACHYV

[2] = target: T2, VN::LAT-1 (LAT-1 fused to the VN part of split Venus) (C. elegans) (UniProt G5EDW2); assay: split reporter; competition BiFC in living C. elegans: VN::lat-1 (1 ng) and VC::lag-2 (1 ng) with 5-fold, 10-fold or 50-fold untagged lag-2 as competitor; heat shock as for BiFC
T2 sequence: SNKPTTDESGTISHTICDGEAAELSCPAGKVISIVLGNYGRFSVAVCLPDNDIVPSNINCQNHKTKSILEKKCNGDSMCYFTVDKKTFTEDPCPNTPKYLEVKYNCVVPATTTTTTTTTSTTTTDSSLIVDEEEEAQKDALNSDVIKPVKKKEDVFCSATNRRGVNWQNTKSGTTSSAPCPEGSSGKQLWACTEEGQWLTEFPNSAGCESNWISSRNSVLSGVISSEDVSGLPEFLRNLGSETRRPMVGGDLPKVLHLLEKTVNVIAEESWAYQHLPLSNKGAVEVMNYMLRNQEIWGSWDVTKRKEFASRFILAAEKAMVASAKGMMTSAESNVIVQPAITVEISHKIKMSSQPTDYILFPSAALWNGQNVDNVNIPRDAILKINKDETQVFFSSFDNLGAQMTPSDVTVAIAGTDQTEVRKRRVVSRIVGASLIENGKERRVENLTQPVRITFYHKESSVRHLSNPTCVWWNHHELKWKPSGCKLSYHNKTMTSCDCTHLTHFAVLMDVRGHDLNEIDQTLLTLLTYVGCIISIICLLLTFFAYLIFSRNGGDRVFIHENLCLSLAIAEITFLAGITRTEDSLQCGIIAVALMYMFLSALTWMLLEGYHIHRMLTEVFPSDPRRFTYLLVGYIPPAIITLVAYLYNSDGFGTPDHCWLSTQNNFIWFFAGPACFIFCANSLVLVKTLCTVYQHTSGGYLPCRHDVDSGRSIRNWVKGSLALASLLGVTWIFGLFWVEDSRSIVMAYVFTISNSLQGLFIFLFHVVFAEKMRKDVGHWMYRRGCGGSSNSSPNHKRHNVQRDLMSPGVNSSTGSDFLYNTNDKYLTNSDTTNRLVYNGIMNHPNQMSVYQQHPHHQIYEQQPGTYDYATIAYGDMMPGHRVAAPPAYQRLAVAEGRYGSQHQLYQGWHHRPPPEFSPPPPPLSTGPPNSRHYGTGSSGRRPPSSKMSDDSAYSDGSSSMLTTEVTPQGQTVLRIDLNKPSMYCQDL

[3] = target: T3, VC::GLP-1 (Notch receptor GLP-1 fused to the VC part of split Venus) (C. elegans) (UniProt P13508); assay: split reporter; BiFC with split Venus (VN/VC) in living C. elegans, heat-shock promoter hsp16.41p, 3 h at 33 °C and 5 h recovery at 22 °C; fluorescence read in the pharynx region
T3 sequence: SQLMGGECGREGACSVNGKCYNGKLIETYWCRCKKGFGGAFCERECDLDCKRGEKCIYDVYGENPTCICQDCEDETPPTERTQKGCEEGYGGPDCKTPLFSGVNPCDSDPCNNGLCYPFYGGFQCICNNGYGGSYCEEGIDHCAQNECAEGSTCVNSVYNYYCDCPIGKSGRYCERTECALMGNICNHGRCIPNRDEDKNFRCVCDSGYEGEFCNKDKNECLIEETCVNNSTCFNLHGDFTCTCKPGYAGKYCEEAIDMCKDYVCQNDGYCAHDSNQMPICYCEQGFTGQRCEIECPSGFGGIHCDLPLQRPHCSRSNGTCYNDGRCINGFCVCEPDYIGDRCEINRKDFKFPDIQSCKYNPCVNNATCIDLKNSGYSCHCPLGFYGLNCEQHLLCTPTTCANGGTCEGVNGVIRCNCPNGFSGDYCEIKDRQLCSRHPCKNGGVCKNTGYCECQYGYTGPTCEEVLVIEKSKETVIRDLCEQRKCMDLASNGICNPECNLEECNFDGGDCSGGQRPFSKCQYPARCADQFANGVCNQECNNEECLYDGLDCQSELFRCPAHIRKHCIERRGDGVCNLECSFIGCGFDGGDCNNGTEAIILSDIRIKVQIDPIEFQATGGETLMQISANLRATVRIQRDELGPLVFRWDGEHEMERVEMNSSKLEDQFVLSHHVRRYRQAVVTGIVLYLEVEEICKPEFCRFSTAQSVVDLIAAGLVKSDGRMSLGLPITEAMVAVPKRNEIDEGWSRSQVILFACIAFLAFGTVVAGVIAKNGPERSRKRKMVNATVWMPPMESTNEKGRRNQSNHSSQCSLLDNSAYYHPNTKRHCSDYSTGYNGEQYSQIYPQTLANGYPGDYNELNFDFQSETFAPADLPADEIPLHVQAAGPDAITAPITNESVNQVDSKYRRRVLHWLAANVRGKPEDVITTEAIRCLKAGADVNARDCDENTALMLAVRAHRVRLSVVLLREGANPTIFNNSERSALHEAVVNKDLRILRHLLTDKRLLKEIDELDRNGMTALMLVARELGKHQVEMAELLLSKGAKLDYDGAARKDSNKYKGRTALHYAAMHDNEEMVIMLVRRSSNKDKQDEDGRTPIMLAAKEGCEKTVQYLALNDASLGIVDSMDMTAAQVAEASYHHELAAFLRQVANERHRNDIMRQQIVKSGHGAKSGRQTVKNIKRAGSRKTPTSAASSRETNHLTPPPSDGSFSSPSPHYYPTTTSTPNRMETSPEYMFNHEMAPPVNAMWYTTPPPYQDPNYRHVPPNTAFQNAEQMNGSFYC

## human glucagon-like peptide-1 receptor (hGLP1R) fused to a Venus protein (from UniProt P43220 24-463)
[1]
  binding: no binding

B1: untagged LAG-2 (competitor in the competition BiFC assay) (ligand, UniProt P45442 16-402)
chain: T1 sequence
[2]
  binding: binds

B2: LAG-2 fused to a part of split Venus (positive control pairing with GLP-1) (ligand, UniProt P45442 16-402)
chain: T1 sequence
[3]
  binding: binds
